PubChem BioAssay AID1259283 – Sanger Institute – 2017
Test: 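Kinases whose silencing adds to targeted drugs in killing colon cancer cells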 (primary screen). System: HT115 colorectal cancer cells. Reagent: siRNA pool against human genes. Treatment: anchor drug given one day after siRNA: BYL719 at 1 µM, cetuximab at 5 µg/ml, trametinib at 10 nM, or DMSO vehicle alone. Read-out: 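Per-drug synergy scores plus replicate-mean viability relative to non-targeting pool #2 wells, also expressed as a robust z-score based on control wells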. Direction: robust z-score, knock-down alone: higher = more viable cells after knock-down; viability, DMSO vs non-targeting control: higher = more viable cells; synergy score with BYL719 and synergy score with cetuximab and synergy score with trametinib: higher = stronger synergy with drug (synthetic lethal). Hit rule: 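a gene counts as essential when its robust z-score with knock-down alone is below -3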. Meaning of the calls: active = essential (z below -3, no drug); inactive = no change without drug.
The deposit covers 794 reagents; below is a random part of them. Over the whole deposit, 14 (1.8%) got an active call. 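Calls reflect only viability loss without drug; drug synergy does not enter the call.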 Unmarked entries are inactive. No viability above 1 is reported: the scale is capped. Reagent sequences are not shown. Not given: the amount of reagent, the time to read-out.

target | robust z-score, knock-down alone | viability, DMSO vs non-targeting control (fraction of control) | synergy score with BYL719 | synergy score with cetuximab | synergy score with trametinib
PRKAG3 | -3.28 (active) | 0.624 | -0.0203 | -0.0037 | 0.0264
STK32A | 0.789 | 1 | -0.0224 | -0.00852 | 0.034
STK36 | -0.0169 | 0.926 | -0.0457 | 0.15 | 0.244
CKMT1B | 0.789 | 1 | 0.105 | 0.21 | 0.146
CHEK2 | 0.789 | 1 | 0.0366 | 0.133 | 0.125
HK2 | -0.488 | 0.882 | 0.0315 | 0.0914 | 0.193
PIK3CB | 0.781 | 0.999 | 0.113 | 0.0145 | -0.0356
EPHB6 | 0.789 | 1 | -0.0224 | -0.00108 | 0.124
CAMK1G | 0.789 | 1 | 0.131 | 0.0875 | -0.02
CDK2 | 0.789 | 1 | -0.0224 | 0.0527 | 0.0447
TNIK | -0.276 | 0.902 | 0.0178 | -0.108 | 0.0959
MED24 | 0.789 | 1 | 0.04 | 0.116 | 0.0557
EPHB4 | 0.35 | 0.959 | -0.015 | 0.0782 | 0.0581
PSKH1 | 0.627 | 0.985 | -0.0151 | 0.0717 | 0.132
MAPK7 | 0.789 | 1 | -0.0224 | 0.0338 | -0.0374
TSKS | 0.789 | 1 | -0.0224 | -0.0233 | -0.0724
SGK1 | 0.495 | 0.973 | 0.103 | 0.0784 | 0.182
ALDH18A1 | -0.877 | 0.846 | -0.0737 | -0.0484 | -0.0968
DMPK | 0.789 | 1 | 0.172 | 0.12 | 0.158
MAPK12 | 0.789 | 1 | 0.049 | 0.00908 | 0.0408
CDKN2D | 0.209 | 0.946 | 0.22 | 0.242 | 0.253
RIPK2 | 0.728 | 0.994 | 0.102 | 0.0724 | 0.185
PRKD1 | 0.789 | 1 | -0.00867 | 0.0983 | 0.0253
PANK4 | -0.774 | 0.856 | 0.0767 | 0.08 | 0.0264
MET | 0.789 | 1 | 0.0642 | 0.166 | 0.0864
MAP3K15 | 0.789 | 1 | 0.0369 | -0.0435 | 0.138
GRK2 | 0.0744 | 0.934 | 0.127 | -0.0174 | 0.191
TWF1 | -0.983 | 0.836 | -0.148 | -0.14 | -0.197
STRADA | -0.905 | 0.843 | 0.0227 | -0.0307 | -0.0283
DUSP21 | 0.789 | 1 | 0.00406 | 0.0299 | -0.0362
CASP8 | 0.789 | 1 | -0.0224 | -0.0435 | -0.0982
AK5 | -1.1 | 0.825 | -0.0353 | 0.0806 | 0.071
EPHA3 | -0.55 | 0.876 | -0.0637 | -0.0208 | 0.104
PIP4K2B | -1.59 | 0.78 | -0.135 | -0.0506 | -0.0244
PHKA1 | 0.789 | 1 | -0.00126 | 0.0598 | -0.0248
PI4K2A | 0.789 | 1 | 0.0195 | 0.143 | 0.0766
CAMK2D | 0.789 | 1 | -0.00155 | -0.0435 | -0.0424
TRIB2 | -0.613 | 0.87 | 0.14 | 0.247 | 0.169
CDK9 | -0.145 | 0.914 | -0.074 | 0.0233 | 0.0104
OBSCN | 0.0562 | 0.932 | 0.042 | -0.00953 | 0.0912
PTK2B | 0.00334 | 0.927 | 0.1 | 0.0654 | 0.265
AURKC | -0.446 | 0.886 | 0.0377 | 0.0457 | 0.153
NUCKS1 | 0.789 | 1 | -0.0224 | -0.0435 | -0.00554
IP6K2 | -3.27 (active) | 0.625 | -0.143 | 0.0187 | 0.104
UCK1 | 0.789 | 1 | -0.0224 | -0.023 | -0.0185
DGKI | 0.593 | 0.982 | 0.0848 | 0.14 | 0.0445
CDKN2C | -2.1 | 0.733 | -0.121 | -0.0558 | 0.0336
ITPKB | 0.789 | 1 | 0.0241 | 0.0364 | 0.0766
CDC42BPB | 0.213 | 0.947 | -0.034 | 0.0586 | 0.109
CDKN2B | -0.0624 | 0.921 | -0.0994 | -0.0578 | -0.0418
IP6K3 | -1.36 | 0.801 | 0.00585 | -0.133 | 0.0832
MYLK2 | -2.66 | 0.681 | -0.0461 | -0.0379 | 0.105
PAPSS2 | -1.24 | 0.813 | -0.19 | 0.0648 | 0.0736
CTNNB1 | 0.789 | 1 | 0.00556 | -0.0253 | -0.151
PRPS2 | 0.789 | 1 | 0.173 | 0.00627 | -0.0392
PIK3C2G | -1.49 | 0.789 | 0.0687 | 0.0833 | 0.0394
RAF1 | 0.538 | 0.977 | -0.0451 | 0.117 | 0.221
CDK8 | 0.789 | 1 | -0.0066 | -0.0435 | 0.0155
BMP2K | -0.59 | 0.873 | -0.147 | -0.134 | -0.0418
DDR2 | 0.78 | 0.999 | 0.0936 | 0.0228 | 0.202
CAMKK2 | 0.504 | 0.974 | -0.0481 | 0.0888 | 0.133
PTPRU | -1.62 | 0.777 | 0.104 | -0.0572 | -0.0386
RTN4 | 0.687 | 0.991 | 0.0812 | 0.193 | 0.165

A run of entries from the list above:
target | robust z-score, knock-down alone | viability, DMSO vs non-targeting control (fraction of control) | synergy score with BYL719 | synergy score with cetuximab | synergy score with trametinib
CDK9 | -0.145 | 0.914 | -0.074 | 0.0233 | 0.0104
OBSCN | 0.0562 | 0.932 | 0.042 | -0.00953 | 0.0912
PTK2B | 0.00334 | 0.927 | 0.1 | 0.0654 | 0.265
AURKC | -0.446 | 0.886 | 0.0377 | 0.0457 | 0.153
NUCKS1 | 0.789 | 1 | -0.0224 | -0.0435 | -0.00554
IP6K2 | -3.27 (active) | 0.625 | -0.143 | 0.0187 | 0.104
UCK1 | 0.789 | 1 | -0.0224 | -0.023 | -0.0185
DGKI | 0.593 | 0.982 | 0.0848 | 0.14 | 0.0445
CDKN2C | -2.1 | 0.733 | -0.121 | -0.0558 | 0.0336
ITPKB | 0.789 | 1 | 0.0241 | 0.0364 | 0.0766
